Data reported in paper PMC8219681, “Inhibition of MRN activity by a telomere protein motif” (Nature Communications, 2021).
No constants are given. Whether binding was seen depends on the method and setting. Some results given as binding are weak or reduced against the parent protein; the word gives no strength. Where a sequence is shown, tags or fusion partners need not be part of it.

Target: Taz1-min (S. pombe Taz1 F511E, P513N), two-hybrid fusion (S. pombe) (UniProt P79005)
Assay: two-hybrid; GBD and GAD plasmids (pGBKT7, pGADT7) co-transformed in strain PJ69-4A; HIS3 and ADE2 reporters, 3 mM 3-aminotriazole in some plates; 30 °C, 3-4 days

binding: binds
B1: Taz1-min (S. pombe Taz1 F511E, P513N), two-hybrid fusion (protein, UniProt P79005 1-663)
chain: MISVQSTETIQKVLENEGDQQFDKEVVQNSDSNIETGQISDSLTKAVEERAETESSSNLSNFTTSESESSKPAYCFNSHSQNMAEGSISIPVISHSMNVENEVSTAEGQDSRTGESENDQNAMIVRSIWDIEKASLLVNDCQNIANMAEQKVMMVSAIFSESSKDIVNPESFSERLGKETVKDLYEFNEQLTTKYGLEFRTIFFSYIRKYDAYWCLFEDLEKPLKSIQFFTGLIDLLDNTNKHLTLRSIVLDALLSADEEDSFYGDALVLFEELVIRYFGTDSNPSIDASEFILSCLPYTSLDALNVVCGQVWKSQKICDFLKSTIGNTSNSPLQLRASFPAFVNAVIHFLLEFKNVRRLERKDLSVKGMLYDSDSQQILNRLRERVSGSTAQSADEASGHESDASEDTFSERTLGLNSIDNTEISEVVSLGLVSSALDKITGLLSADNLSETVSQARDFSHTLSKSLKSRAKSLSQKEAANRSKLIAKRGDNLRREASLSSEQDDLSEDEPNVRESDEQESRSGGRSSAMRVSIERSAARSGTRRSQGNPYEGYRTRRKWTDEEENELYEMISQHGCCWSKIIHIQKLENGPLKTFGPTQIKDKARLIKARFMKQNRLQELYSKSLNWKNVTVGQAYCELHKIPYIEATPPLLREELVNYQS
